Data reported in PMC5507890.
These are yes or no findings as the source states them, for the method shown. In cells and extracts the contact can be indirect.

Amino acid sequences for entries named in this document (tags omitted). Residues count along the entry.
UniProt P35739, residues 33-799: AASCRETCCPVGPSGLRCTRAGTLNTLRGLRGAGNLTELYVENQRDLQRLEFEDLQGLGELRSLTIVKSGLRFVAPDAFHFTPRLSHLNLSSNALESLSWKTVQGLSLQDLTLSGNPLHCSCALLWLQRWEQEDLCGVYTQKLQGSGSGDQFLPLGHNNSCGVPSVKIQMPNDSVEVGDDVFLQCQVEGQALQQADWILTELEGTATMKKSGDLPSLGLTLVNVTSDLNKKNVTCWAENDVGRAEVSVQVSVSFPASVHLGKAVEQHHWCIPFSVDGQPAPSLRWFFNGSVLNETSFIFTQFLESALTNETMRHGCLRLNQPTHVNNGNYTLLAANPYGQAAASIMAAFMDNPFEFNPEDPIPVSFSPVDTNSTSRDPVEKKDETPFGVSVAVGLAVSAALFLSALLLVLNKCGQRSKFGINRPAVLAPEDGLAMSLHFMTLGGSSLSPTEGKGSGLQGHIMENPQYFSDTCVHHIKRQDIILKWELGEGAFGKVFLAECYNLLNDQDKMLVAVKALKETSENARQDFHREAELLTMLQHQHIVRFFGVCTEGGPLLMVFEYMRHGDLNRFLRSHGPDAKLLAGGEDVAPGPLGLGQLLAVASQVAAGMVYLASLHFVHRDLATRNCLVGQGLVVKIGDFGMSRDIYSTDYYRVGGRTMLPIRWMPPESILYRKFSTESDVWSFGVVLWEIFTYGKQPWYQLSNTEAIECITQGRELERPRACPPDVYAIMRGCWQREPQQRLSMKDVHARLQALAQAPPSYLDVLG

Target: T1, Membrane progesterone receptor beta (mPRβ/Paqr8) (rat (endogenous in PC12)) (UniProt Q6AY03)
T1 sequence: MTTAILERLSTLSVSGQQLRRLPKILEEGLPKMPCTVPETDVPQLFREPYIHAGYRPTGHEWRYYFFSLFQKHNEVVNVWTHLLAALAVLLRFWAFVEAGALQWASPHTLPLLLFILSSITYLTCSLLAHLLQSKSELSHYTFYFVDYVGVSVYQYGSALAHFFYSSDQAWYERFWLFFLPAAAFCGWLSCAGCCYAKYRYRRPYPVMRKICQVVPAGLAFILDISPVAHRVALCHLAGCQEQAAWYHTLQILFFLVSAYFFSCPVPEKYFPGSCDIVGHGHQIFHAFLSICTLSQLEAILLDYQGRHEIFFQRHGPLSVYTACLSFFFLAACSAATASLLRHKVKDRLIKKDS
Experiment: co-IP; lysates of cells left untreated or treated for 5 min with progesterone (10 μM) or NGF (100 ng/ml); immunoprecipitated with anti-mPRβ antibodies, blotted with anti-mPRβ and anti-TrkA antibodies

TrkA (from UniProt P35739 33-799) (receptor)
binding: no binding
